# Assay results from PMC6925144, “A prospective compound screening contest identified broader inhibitors for Sirtuin 1” (Scientific Reports, 2019).
# The chains behind the UniProt entries cited, without tags or fusion partners. Residues count along the entry.
# UniProt Q96EB6, 2-747 limits assumed: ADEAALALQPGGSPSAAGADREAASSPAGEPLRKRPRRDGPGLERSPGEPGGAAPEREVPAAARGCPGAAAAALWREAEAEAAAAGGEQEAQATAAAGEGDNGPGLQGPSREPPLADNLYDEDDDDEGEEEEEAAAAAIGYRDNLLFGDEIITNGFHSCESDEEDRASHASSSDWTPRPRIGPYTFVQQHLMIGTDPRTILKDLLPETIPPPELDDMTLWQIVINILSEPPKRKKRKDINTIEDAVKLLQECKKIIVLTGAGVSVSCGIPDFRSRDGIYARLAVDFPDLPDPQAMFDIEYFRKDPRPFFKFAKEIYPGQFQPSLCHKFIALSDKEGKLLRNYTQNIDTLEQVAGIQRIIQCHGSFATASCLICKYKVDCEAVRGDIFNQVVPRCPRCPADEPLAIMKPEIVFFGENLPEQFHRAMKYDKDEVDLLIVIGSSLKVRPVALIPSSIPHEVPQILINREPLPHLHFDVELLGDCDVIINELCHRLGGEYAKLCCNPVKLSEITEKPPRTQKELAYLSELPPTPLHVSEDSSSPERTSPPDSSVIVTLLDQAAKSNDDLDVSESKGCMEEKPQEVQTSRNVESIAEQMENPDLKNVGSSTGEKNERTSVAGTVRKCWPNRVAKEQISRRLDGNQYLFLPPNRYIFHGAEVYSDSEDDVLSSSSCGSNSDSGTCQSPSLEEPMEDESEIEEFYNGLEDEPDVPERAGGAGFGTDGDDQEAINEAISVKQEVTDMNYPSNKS
# In all, about 3,200 compounds were measured (“TSA(with NAD+) / Primary screening (TSA) / delta Tm (K)”: median about -0.04, highest 2% from about 0.37 on). The list shows a part of the results.
# Target: NAD-dependent deacetylase Sirtuin 1 (human, UniProt Q96EB6)
# Assay: primary screen, delta tm
# Set-up: single well (n = 1, as 'the same TSA')
# Details: 10 µM
row,SMILES,TSA(with NAD+) / Primary screening (TSA) / delta Tm (K)
1,O=C1NC(=O)C(c2ccccc2)(C(F)(F)F)N1 (stereo not drawn),-0.16
2,COc1ccc(C(=O)C2=C(O)C(=O)N(CCN3CCOCC3)C2c2ccc(Cl)cc2)c(O)c1 (stereo not drawn),-0.04
3,NC(=O)N(Cc1ccccc1)Cc1ccccc1,-0.11
4,CC(OC(=O)Cc1c[nH]c2ccccc12)C(=O)Nc1ccc(C(N)=O)cc1 (stereo not drawn),0.12
5,CN(c1cccc(Cl)c1)S(=O)(=O)c1cccc(C(=O)Nc2sccc2C(N)=O)c1,0.22
6,COc1ccc(NC(=O)c2cccc(S(=O)(=O)NC(C)C34CC5CC(CC(C5)C3)C4)c2)cc1S(=O)(=O)N1CCOCC1 (stereo not drawn),0.32
7,CN(CC(=O)NCc1ccco1)CC(=O)Nc1nc(-c2c[nH]c3ccccc23)cs1,-0.23
8,O=C1NC(=S)NC(=O)C1=NNc1cccc(OC(F)F)c1,-0.04
9,Cc1ccc(OCc2nnc(SCc3ccccc3)n2N)c(C)c1,0.03
10,COc1ccc(C(=O)C2=C(O)C(=O)N(CCCN3CCOCC3)C2c2ccc(Cl)cc2)cc1C (stereo not drawn),-0.08
11,CCOC(C)CN (stereo not drawn),-0.16
12,COC(=O)CSc1nc2ccc(OC)cc2[nH]1,0.02
13,Cc1ccc(Oc2ccc(NC(=O)c3cncc(Br)c3)cc2)cc1,-0.26
14,NC(=O)c1csc(C(=O)NCc2ccn(-c3ccccc3F)n2)c1,-0.08
15,Cc1cc2occ(CC(=O)N3CCC(C(N)=O)C3)c2cc1C(C)C (stereo not drawn),0.08
16,Cc1nc2c3ccccc3nc(SCC(=O)Nc3cc(C(F)(F)F)ccc3-n3cncn3)n2n1,-0.03
17,CC(=O)OCC1OC(COc2ccc(C(=O)Cc3csc(-c4ccccc4)n3)c(O)c2)C(OC(C)=O)C(OC(C)=O)C1OC(C)=O (stereo not drawn),-0.09
18,Cc1ccccc1N1C(=O)c2ccc(C(=O)NCC34CC5CC(CC(C5)C3)C4)cc2C1=O,0.26
19,Cc1cc(=O)oc2cc(OCC(=O)NC3CCC4CCCCC4C3)ccc12 (stereo not drawn),0.05
20,O=C(COC(=O)c1cccc(NS(=O)(=O)/C=C/c2ccccc2)c1)NC12CC3CC(CC(C3)C1)C2,-0.01
21,Cc1ccc(NC(=O)CN2CSCC2=O)c(OCCN(C)C)c1,0.09
22,CCOCC(O)CN (stereo not drawn),0.02
23,CC1CCc2[nH]c3ccc(C(=O)Nc4cccc(S(=O)(=O)N(C)c5ccccc5)c4)cc3c2C1 (stereo not drawn),0.39

row,SMILES,TSA(with NAD+) / Primary screening (TSA) / delta Tm (K)
1,O=C(NNC1c2ccccc2-c2ccccc21)C1COc2ccccc2O1 (stereo not drawn),0.06
2,Cc1ccc2nc(C)c(C(=O)Nc3cccc(-c4nnn[nH]4)c3)cc2c1,-0.18
3,c1ccc(-c2[nH]c3ccccc3c2-c2ccccc2)cc1,0.39
4,COc1cccc(-c2noc(COC(=O)C3CCCN3C(=O)C34CC5CC(CC(C5)C3)C4)n2)c1 (stereo not drawn),0.03
5,COCCN(C)Cc1ccc(-c2cccc(F)c2C)o1,-0.11
6,Cc1ccc(-c2nn(-c3ccccc3)cc2C=C2C(=O)NC(=O)NC2=O)o1,-0.59
7,OC1CCCCC1Nc1cnc2ccccc2n1 (stereo not drawn),0.08
8,NC(=O)C(NC(=O)COc1ccc(C(=O)c2ccccc2)cc1)C(N)=O,-0.03
9,Cc1nc(-c2ccccn2)nc(N2CCCC(C(N)=O)C2)c1C (stereo not drawn),-0.06
10,NC(=S)c1ccc(C(=O)NC2CCSc3c(F)cccc32)cc1 (stereo not drawn),-0.23
11,CCCCn1c(COc2ccc(N(C)S(=O)(=O)c3ccc(C)cc3)cc2)nc2cc(S(N)(=O)=O)ccc21,-0.03
12,CC(C)(C)OC(=O)N1CCC(CC(=O)Nc2ccccc2-c2nc3ccccc3[nH]2)CC1,0.25
13,C=CCNC(=O)CN1CCN(c2ncnc3sc4c(c23)CCC4)CC1,-0.18
14,O=C(COC(=O)C(Cc1ccccc1)NC(=O)c1ccccc1)NCC12CC3CC(CC(C3)C1)C2 (stereo not drawn),-0.12
15,Cc1nc(N2CCC(C(N)=O)CC2)c2c3c(sc2n1)CCCC3,0.57
16,COCC(C)C(=O)O (stereo not drawn),0.01
17,NC(=O)c1cnc(NC(=O)Cc2cc3c(ccc4ccccc43)o2)s1,0.11
18,Cc1ccc2nc(-c3ccc(NC(=O)C(C)Cl)cc3)sc2c1 (stereo not drawn),0.19
19,COc1ccccc1C(=O)NC(CCSC)C(=O)NCCN1C(=O)S/C(=C/c2ccc3c(c2)OCO3)C1=O (stereo not drawn),0.07
20,Oc1ccccc1N1CCN(CCCc2cncc(F)c2)CC1,0.05
21,CCCCNC(=O)CN1CCN(c2ncnc3cc(Cl)ccc23)CC1,-0.01
22,O=C(O)C1CC(=O)N(c2cccc(-c3nc(C4CC4)no3)c2)C1 (stereo not drawn),-0.22
23,CN(c1cnccn1)S(=O)(=O)c1ccc2c(c1)C(C)(C)C(=O)N2,0.09

row,SMILES,TSA(with NAD+) / Primary screening (TSA) / delta Tm (K)
1,Cc1ccc2c(COc3ncnc4sc5c(c34)CCCC5)cc(=O)oc2c1,0.16
2,CCc1ccc(C(CO)NCc2cn3cc(Cl)ccc3n2)cc1 (stereo not drawn),0.07
3,C=CCOc1ccc(C2C(C(=O)c3ccccc3)=C(O)C(=O)N2CCCN2CCOCC2)cc1 (stereo not drawn),-0.02
4,Cc1ccc2oc(=N)c3c(N)nc(-c4ccc5c(c4)OCO5)cc3c2c1,-0.03
5,CCC(=O)c1ccc(OCC(=O)NNC(=O)c2cc(C)oc2C)cc1,-0.03
6,Cc1cc(C)cc(OCC(=O)N2Cc3ccccc3CC2C(=O)O)c1 (stereo not drawn),-0.13
7,O=C(CSCC(=O)Nc1cccc2ccccc12)Nc1ccccc1F,-0.16
8,Cc1cccc(-c2ccc(C(=O)N3CCc4ccccc4C3)c(=O)[nH]2)c1,0.06
9,NC(=S)c1ccc(C(=O)NC2CCC(O)CC2)cc1 (stereo not drawn),-0.18
10,O=S(=O)(NCCNS(=O)(=O)c1cccs1)c1cccs1,-0.09
11,COc1ccc2[nH]c3c(N(C)C)ncnc3c2c1,-0.14
12,CSc1cccc(N2CC(C(=O)OCC(N)=O)CC2=O)c1 (stereo not drawn),-0.12
13,O=C(Nc1ccccc1)C1CCN(C(=O)c2cccc(S(=O)(=O)NCc3ccccc3)c2)CC1,-0.19
14,COC(C)CCN (stereo not drawn),-0.16
15,Cc1ccc(CN(C)CC(=O)Nc2ccc3c(c2)OCCCO3)cc1,-0.08
16,CC(C)Cc1ccc(C(NC(C)C(=O)Nc2ccc(C(N)=O)cc2)C(C)C)cc1 (stereo not drawn),-0.13
17,CC(=O)Nc1ccc(C(=O)Nc2cccc(S(=O)(=O)NCc3ccco3)c2)s1,0.02
18,CCc1cc2c(N3CCN(Cc4ccc5c(c4)OCO5)CC3)nc(C)nc2s1,-0.04
19,Cc1ccc(N(C)S(=O)(=O)c2cccc(C(=O)Nc3ccncc3)c2)cc1,-0.15
20,CN(C)c1ccc(C=C2C(=O)NC(=S)NC2=O)cc1,-0.21
21,COc1ccc(C(=O)OCC(=O)NC(Cc2ccccc2)C(C)=O)cc1S(=O)(=O)N1CCCC1 (stereo not drawn),-0.01
22,Cc1ccc2nc(CSc3nnc(NCc4ccco4)s3)cc(=O)n2c1,-0.01
23,O=C(/C=C/c1ccc(S(=O)(=O)N2CCc3ccccc32)cc1)Nc1cccc(S(=O)(=O)NCc2ccco2)c1,0.26

row,SMILES,TSA(with NAD+) / Primary screening (TSA) / delta Tm (K)
1,NC(=O)C1CCCN1Cc1nc2cc(Br)cnc2[nH]1 (stereo not drawn),-0.19
2,CCOc1ccc2oc(C(=O)NN3C(C)CCCC3C)c(C)c2c1 (stereo not drawn),-0.11
3,CCN(CC(=O)OC(C)C(=O)NC(N)=O)Cc1ccc(Cl)cc1 (stereo not drawn),-0.09
4,CC(Sc1nc(N)nc(N)n1)C(=O)N1CCOCC1 (stereo not drawn),-0.02
5,CCN(CC)C(CNC(=O)CNC(=O)c1ccoc1C)c1ccco1 (stereo not drawn),0.05
6,CN(c1ccccc1)S(=O)(=O)c1cccc(NC(=O)CCc2c[nH]c3ccccc23)c1,0.32
7,O=C(Nc1cccc(S(=O)(=O)NCc2ccco2)c1)c1ccc(COc2ccccc2)o1,0.06
8,COc1ccc(CCNC(=O)c2ccccc2NS(=O)(=O)CC23CCC(CC2=O)C3(C)C)cc1 (stereo not drawn),-0.01
9,O=C(NCc1ccccc1)/C(=C/c1ccc(OCc2ccccc2)cc1)c1nc2ccccc2[nH]1,0.19
10,N#Cc1ccc(CN2CCC(CCc3ccc(O)cc3)CC2)c(F)c1,-0.24
11,NC(=O)c1ccc(S(=O)(=O)NNC(=O)c2cc3c(s2)CCCCC3)cc1,-0.03
12,CC(OC(=O)c1c2ccccc2cc2ccccc12)C(=O)c1ccccc1 (stereo not drawn),-0.03
13,O=C(CCc1nc2ccccc2s1)Nc1ccc(N2CCN(Cc3ccccc3)CC2)cc1,0.06
14,CC(OC(=O)Cc1coc2cc(O)ccc12)C(=O)Nc1ccc(C(N)=O)cc1 (stereo not drawn),-0.14
15,CNC(=O)c1ccc2[nH]c3c(c2c1)CCCC3,0.25
16,CS/C(=N/S(=O)(=O)c1cccs1)NS(=O)(=O)c1ccc(N)cc1,-0.14
17,Cc1ccc(C(=O)NNC(=O)c2ccc(S(=O)(=O)N3CCCC3)cc2)cc1,-0.09
18,Cc1nn(-c2ccccc2)c(C)c1NC(=O)COC(=O)c1ccc2[nH]c(C)c(C)c2c1,-0.08
19,NC(=O)c1ccc(C(=O)NC2CCN(C(=O)NC3CCCCC3)CC2)cc1,0.08
20,O=C(CC12CC3CC(CC(C3)C1)C2)NNC(=O)[C@H](Cc1ccccc1)N1C(=O)c2ccccc2C1=O,0.05
21,CCc1nnc(NC(=O)Nc2ccc(O)cc2C)s1,-0.11
